This is one part of the list. The data scatter; read single values as rough.
What was measured:
[1] = compound: ClCC(=O)N[C@@H]1CCCc2ccccc12; assay: log2 mean competition ratio of IA-DTB cysteine labelling (DMSO/compound) (log2 ratio); higher = stronger cysteine engagement by compound; details: treatment time: 4 h, cell line lysate: HEK293T
Experimental: (§1)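 IA-DTB competitive cysteine chemoproteomics in HEK293T RIPA lysate. Lysates were treated with compound 29 or 30 at 50 or 200 µM for 4 h, then IA-DTB (500 µM, 1 h), trypsin-digested, NeutrAvidin-enriched and analysed by diaPASEF. Competition ratio = intensity DMSO / intensity compound (n=4 treated, n=64 DMSO); binding: mean log2 CR ≥ 1 and p ≤ 0.05 plus QC filters. Target is the cysteine site.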

By UniProt entry, the sequences of proteins in these tests, tags left out. Where a name states a change or a piece, a line headed by the entry shows the natural chain unless it says otherwise. Residues count along the entry.
UniProt O95782: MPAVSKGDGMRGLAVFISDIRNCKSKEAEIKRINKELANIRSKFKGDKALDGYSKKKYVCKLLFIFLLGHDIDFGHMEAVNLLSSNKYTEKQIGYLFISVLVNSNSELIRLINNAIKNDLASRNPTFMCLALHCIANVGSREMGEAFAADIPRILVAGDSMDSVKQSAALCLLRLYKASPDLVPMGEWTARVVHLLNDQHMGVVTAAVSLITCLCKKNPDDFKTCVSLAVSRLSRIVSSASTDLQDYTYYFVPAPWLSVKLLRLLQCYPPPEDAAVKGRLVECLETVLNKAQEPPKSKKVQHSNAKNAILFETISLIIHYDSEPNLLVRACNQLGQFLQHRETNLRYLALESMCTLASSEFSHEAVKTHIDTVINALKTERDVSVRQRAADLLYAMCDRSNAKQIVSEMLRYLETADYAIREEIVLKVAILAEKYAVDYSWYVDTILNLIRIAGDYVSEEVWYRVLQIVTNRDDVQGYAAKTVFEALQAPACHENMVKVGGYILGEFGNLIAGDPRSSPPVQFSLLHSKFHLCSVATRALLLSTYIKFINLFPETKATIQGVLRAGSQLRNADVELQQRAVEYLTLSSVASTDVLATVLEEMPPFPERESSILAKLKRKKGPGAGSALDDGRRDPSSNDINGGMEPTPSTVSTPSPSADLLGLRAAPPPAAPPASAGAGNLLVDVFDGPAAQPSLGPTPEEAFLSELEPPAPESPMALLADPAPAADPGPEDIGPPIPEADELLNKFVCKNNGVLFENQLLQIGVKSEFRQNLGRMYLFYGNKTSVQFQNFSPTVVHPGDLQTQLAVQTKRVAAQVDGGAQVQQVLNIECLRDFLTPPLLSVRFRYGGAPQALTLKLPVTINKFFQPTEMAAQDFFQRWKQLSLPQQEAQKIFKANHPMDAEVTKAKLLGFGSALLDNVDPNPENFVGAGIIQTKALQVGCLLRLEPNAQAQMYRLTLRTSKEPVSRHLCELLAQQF
UniProt Q9NQW6: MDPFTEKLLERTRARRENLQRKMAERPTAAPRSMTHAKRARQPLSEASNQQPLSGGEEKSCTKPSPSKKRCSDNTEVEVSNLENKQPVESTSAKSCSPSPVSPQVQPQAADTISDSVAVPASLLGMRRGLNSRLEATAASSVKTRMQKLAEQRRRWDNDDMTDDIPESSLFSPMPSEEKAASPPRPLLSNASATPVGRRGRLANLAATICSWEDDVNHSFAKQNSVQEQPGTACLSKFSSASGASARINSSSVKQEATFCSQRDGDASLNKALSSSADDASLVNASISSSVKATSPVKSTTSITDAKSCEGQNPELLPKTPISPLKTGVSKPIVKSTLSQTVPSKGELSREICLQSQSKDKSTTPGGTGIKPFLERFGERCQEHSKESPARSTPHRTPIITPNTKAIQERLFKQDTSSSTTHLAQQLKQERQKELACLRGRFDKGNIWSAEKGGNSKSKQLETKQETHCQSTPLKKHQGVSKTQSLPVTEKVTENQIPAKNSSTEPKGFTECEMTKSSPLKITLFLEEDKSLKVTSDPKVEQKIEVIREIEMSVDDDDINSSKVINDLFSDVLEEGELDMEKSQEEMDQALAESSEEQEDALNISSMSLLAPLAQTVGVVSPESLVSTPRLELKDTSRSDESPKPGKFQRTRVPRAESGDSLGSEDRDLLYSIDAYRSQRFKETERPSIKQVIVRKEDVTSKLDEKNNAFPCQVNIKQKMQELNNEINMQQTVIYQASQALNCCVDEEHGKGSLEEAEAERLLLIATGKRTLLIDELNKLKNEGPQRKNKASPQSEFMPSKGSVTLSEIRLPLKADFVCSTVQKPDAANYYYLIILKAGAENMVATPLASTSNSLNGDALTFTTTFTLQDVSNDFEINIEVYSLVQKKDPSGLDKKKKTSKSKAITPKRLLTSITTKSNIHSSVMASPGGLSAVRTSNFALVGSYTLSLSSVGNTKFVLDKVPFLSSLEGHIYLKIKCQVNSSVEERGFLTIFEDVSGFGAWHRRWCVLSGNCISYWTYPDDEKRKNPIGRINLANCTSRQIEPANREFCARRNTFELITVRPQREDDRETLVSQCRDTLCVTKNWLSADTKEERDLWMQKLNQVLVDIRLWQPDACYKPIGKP
UniProt Q14CB8: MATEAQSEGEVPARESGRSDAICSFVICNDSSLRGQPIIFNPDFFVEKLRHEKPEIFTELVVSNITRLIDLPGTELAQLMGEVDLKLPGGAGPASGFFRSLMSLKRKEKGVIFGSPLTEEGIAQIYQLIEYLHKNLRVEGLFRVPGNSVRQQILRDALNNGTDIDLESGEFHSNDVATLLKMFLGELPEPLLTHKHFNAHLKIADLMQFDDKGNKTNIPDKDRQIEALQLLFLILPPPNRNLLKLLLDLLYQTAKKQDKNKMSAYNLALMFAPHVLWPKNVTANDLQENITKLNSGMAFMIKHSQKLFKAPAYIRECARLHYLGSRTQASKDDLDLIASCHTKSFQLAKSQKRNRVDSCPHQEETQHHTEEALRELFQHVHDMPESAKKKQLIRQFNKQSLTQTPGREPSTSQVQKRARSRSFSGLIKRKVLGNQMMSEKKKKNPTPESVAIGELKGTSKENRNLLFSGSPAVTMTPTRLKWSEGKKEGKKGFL
UniProt Q9NP61: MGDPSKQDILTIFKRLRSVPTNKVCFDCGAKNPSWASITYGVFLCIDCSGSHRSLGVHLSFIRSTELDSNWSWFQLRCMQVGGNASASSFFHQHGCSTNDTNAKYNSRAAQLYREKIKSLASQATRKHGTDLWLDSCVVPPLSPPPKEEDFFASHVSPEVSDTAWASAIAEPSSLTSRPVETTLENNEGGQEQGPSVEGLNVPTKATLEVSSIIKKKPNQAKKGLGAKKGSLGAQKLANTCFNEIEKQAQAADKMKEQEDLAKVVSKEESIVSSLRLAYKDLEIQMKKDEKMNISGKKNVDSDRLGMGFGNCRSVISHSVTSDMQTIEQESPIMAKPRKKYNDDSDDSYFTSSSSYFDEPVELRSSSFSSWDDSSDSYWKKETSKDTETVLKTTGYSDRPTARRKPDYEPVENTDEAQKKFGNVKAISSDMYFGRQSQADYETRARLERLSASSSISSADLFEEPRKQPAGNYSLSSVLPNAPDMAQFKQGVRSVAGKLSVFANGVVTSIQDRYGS
UniProt Q9Y2T2: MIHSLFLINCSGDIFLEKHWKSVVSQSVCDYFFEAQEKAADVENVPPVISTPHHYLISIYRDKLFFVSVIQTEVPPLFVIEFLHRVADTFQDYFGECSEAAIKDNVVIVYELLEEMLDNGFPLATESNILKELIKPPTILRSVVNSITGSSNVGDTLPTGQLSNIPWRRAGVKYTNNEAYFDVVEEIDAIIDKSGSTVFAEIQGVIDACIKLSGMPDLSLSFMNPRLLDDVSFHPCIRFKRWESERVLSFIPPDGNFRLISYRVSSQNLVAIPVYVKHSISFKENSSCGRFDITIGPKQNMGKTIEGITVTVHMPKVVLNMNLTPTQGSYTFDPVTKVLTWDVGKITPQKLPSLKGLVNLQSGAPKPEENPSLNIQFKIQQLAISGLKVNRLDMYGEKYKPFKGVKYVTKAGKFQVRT
UniProt O75179, 556-581: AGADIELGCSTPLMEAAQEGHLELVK
UniProt Q53RE8: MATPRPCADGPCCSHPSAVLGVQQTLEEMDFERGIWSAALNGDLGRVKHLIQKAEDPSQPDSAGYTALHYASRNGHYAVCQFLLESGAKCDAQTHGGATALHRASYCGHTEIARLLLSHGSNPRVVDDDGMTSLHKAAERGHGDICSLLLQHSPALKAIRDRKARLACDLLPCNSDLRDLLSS
UniProt O14617, 190-212: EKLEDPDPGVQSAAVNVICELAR
UniProt Q68DC2: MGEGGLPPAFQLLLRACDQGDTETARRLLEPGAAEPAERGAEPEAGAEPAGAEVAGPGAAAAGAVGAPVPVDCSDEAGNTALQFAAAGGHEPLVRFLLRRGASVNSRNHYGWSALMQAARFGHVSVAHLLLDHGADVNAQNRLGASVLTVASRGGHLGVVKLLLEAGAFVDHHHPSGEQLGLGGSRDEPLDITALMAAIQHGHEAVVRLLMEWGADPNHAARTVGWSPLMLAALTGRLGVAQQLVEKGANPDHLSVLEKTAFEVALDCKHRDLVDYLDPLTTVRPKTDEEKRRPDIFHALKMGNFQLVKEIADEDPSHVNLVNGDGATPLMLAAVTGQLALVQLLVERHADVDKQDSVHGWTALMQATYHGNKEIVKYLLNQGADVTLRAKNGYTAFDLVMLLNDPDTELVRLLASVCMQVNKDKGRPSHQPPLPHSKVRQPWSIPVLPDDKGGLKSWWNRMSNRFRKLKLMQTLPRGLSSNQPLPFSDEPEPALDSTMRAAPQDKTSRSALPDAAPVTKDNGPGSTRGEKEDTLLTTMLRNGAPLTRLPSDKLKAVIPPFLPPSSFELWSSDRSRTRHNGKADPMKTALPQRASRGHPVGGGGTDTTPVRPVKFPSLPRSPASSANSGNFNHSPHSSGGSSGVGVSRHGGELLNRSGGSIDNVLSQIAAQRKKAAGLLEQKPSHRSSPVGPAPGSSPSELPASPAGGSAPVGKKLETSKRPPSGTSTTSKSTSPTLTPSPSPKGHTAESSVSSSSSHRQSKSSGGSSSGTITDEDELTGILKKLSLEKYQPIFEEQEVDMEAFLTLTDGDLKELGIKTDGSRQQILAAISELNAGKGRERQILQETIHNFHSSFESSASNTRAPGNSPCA
UniProt Q9NZN5: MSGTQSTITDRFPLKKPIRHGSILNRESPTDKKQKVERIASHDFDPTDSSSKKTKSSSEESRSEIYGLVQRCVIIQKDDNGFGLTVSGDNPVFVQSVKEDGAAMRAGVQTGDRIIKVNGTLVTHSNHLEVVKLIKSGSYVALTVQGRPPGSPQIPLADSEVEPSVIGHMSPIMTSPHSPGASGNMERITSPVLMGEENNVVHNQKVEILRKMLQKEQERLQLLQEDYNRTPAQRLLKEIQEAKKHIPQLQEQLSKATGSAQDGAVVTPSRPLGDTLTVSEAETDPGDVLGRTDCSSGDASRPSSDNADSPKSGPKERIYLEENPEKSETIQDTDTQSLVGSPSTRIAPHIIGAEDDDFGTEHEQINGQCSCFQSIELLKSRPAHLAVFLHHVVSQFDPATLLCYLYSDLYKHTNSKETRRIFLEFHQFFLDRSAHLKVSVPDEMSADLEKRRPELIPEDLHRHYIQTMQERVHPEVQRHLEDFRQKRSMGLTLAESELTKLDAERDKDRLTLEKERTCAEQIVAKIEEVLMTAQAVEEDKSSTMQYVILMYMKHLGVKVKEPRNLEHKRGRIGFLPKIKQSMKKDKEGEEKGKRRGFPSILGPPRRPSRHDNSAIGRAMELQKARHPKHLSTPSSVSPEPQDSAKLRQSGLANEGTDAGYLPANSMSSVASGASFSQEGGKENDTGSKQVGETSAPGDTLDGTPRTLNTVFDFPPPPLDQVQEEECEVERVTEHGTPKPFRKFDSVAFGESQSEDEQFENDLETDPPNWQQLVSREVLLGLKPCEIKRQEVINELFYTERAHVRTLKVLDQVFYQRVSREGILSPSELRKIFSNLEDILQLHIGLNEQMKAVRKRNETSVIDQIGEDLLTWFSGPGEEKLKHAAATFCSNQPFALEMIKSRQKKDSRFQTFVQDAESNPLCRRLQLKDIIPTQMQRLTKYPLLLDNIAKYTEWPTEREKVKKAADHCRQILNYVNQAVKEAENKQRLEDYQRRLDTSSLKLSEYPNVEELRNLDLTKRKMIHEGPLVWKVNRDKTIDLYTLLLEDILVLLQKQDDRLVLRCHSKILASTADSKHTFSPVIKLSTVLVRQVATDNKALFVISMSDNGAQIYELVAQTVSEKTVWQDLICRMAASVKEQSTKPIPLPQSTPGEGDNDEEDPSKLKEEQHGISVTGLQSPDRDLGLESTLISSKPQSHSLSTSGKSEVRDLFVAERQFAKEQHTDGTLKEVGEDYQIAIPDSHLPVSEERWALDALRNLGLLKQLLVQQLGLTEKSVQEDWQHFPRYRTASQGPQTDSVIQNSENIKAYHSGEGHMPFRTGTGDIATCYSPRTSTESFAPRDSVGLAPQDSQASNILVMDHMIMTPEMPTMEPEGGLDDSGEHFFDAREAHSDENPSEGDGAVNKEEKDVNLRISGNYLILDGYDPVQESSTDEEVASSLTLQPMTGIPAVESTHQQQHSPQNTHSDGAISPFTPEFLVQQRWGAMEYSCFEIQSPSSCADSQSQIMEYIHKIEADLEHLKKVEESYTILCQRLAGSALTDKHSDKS
UniProt Q86XL3, 674-698: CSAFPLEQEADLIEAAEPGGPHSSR
UniProt Q9UH62: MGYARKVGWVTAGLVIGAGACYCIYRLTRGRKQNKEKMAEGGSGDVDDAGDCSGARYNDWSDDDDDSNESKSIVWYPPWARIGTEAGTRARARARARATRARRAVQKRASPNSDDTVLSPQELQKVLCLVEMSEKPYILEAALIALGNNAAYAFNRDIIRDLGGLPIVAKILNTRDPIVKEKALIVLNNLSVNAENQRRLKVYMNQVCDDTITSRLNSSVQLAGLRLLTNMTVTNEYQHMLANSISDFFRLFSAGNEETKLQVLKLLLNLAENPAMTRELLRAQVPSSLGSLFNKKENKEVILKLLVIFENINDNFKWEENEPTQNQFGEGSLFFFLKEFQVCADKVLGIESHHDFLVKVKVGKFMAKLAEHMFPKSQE

[2] = compound: ClCC(=O)N[C@H]1CCCc2ccccc12; assay: as above; details: treatment time: 4 h, cell line lysate: HEK293T
Experimental: as §1

Target	log2 mean competition ratio ([1]; 50 µM)	log2 mean competition ratio ([1]; 200 µM)	log2 mean competition ratio ([2]; 200 µM)	log2 mean competition ratio ([2]; 50 µM)
AP2A1 C941 (UniProt O95782)	0.659	0.217	0.0158	–
AQR C997 (UniProt O60306)	0.275	-0.0118	–	–
ANKS1A C651 (UniProt Q92625)	-0.0113	0.0293	0.0359	0.214
ANLN C260 (UniProt Q9NQW6)	-0.209	-0.00554	0.0587	0.232
ASCC3 C704 (UniProt Q8N3C0)	-0.26	-0.0667	–	–
ARHGAP19 C359 (UniProt Q14CB8)	0.0487	-0.0757	–	–
AS3MT C85	0.125	0.19	–	–
ARHGAP11A C690 (UniProt Q6P4F7)	0.132	0.0633	0.0527	–
ARID2 C382 (UniProt Q68CP9)	-0.0362	0.0746	–	–
ARMC8 C275	-0.0261	0.227	0.429	0.0504
ARHGAP17 C190 (UniProt Q68EM7)	-0.312	0.133	–	–
ARFGAP3 C241 (UniProt Q9NP61)	-0.0483	-0.0243	–	–
AP3M1 C29 (UniProt Q9Y2T2)	-0.141	0.0805	–	–
ARPC1B C70 (UniProt O15143)	-0.0581	-0.0727	–	–
ANKRD17 C564 (UniProt O75179)	0.17	0.262	-0.0782	-0.119
ANKRD17 C242 (UniProt O75179)	-0.0421	-0.326	–	–
ARID4A C25 (UniProt P29374)	-0.278	-0.209	–	-0.0724
ARFGEF2 C1617 (UniProt Q9Y6D5)	-0.0262	0.13	-0.15	-0.712
AP1B1 C866 (UniProt Q10567)	-0.18	-0.0589	0.141	-0.527
ARHGEF6 C738 (UniProt Q15052)	-0.0155	0.384	0.34	-0.0881
AS3MT C226	-0.121	0.398	0.212	-0.598
ARHGAP44 C367	-0.0674	-0.347	0.0302	-0.328
ANKRD39 C107 (UniProt Q53RE8)	0.631	0.245	-0.242	0.503
AP2A1 C970 (UniProt O95782)	0.474	0.102	0.0968	0.374

Target	log2 mean competition ratio ([1]; 50 µM)	log2 mean competition ratio ([1]; 200 µM)	log2 mean competition ratio ([2]; 200 µM)	log2 mean competition ratio ([2]; 50 µM)
ARHGAP21 C1152 (UniProt Q5T5U3)	0.11	-0.32	0.104	-0.0104
AP3D1 C1103 (UniProt O14617)	0.187	-0.0184	-0.0929	0.104
ASCC3 C1906 (UniProt Q8N3C0)	-0.312	-0.678	-0.475	-0.537
ANKRD27 C277 (UniProt Q96NW4)	-0.127	-0.13	0.151	-0.0443
AP3D1 C208 (UniProt O14617)	-0.192	-0.0424	-0.126	-0.19
ANKS6 C268 (UniProt Q68DC2)	-0.233	-0.104	0.055	-0.0595
ARHGEF26 C566	-0.31	0.357	0.524	0.00821
ANLN C353 (UniProt Q9NQW6)	0.024	-0.054	0.251	0.489
ARHGEF12 C784 (UniProt Q9NZN5)	-0.184	0.0822	0.063	-0.0934
ANKLE2 C674 (UniProt Q86XL3)	0.545	-0.215	0.09	0.419
ARHGAP42 C24	-0.248	0.309	-0.214	-0.626
ARIH2 C280 (UniProt O95376)	-0.0535	-0.113	-0.112	-0.472
ARID1A C1874 (UniProt O14497)	-0.0853	-0.627	-0.537	0.261
APPL2 C412 (UniProt Q8NEU8)	-0.081	-0.0668	-0.0216	-0.0826
ARMCX3 C52 (UniProt Q9UH62)	-0.546	-0.245	0.52	-0.387
ARHGEF40 C1233 (UniProt Q8TER5)	0.0155	0.0765	0.243	0.0657
ARHGAP5 C727 (UniProt Q13017)	-0.0804	0.2	0.246	0.32
ANLN C1117 (UniProt Q9NQW6)	0.141	-0.0191	-0.119	-0.227
ANKRD17 C1746 (UniProt O75179)	0.212	-0.141	-0.0919	0.451
APC C914 (UniProt P25054)	-0.258	-0.118	-0.17	-0.299
ARHGAP32 C1872 (UniProt A7KAX9)	0.0365	0.13	0.238	-0.551
AR C519	0.0116	0.163	0.202	0.127
ARFGEF3 C1018	0.284	-0.25	-0.117	0.159

3 entries from above in another layout:
Target,log2 mean competition ratio ([1]; 50 µM),log2 mean competition ratio ([1]; 200 µM),log2 mean competition ratio ([2]; 200 µM),log2 mean competition ratio ([2]; 50 µM)
AP2A1 C970 (UniProt O95782),0.474,0.102,0.0968,0.374
ARHGAP21 C1152 (UniProt Q5T5U3),0.11,-0.32,0.104,-0.0104
AP3D1 C1103 (UniProt O14617),0.187,-0.0184,-0.0929,0.104

— the supplement of paper PMC11732987, “Enantioselective OTUD7B fragment discovery through chemoproteomics screening and high-throughput optimisation” (Communications Chemistry, 2025)
